These are yes or no findings as the source states them, for the method shown. Binding seen in cells or lysates may run through a third protein. Some entries that bind do so weakly or less than the wild type.
How the values were obtained:
[1] = molecular target: T1, Chk1 (human (endogenous in HCT116, HT29)) (UniProt O14757); assay: co-IP; anti-Chk1 antibody, Dynabeads Protein G, lysates of HT29 and ATF2-KO clones B5 and F10, 60 uM 5-FU for 48 h or DMSO; Western blot for p-ATR Thr1989
T1 sequence: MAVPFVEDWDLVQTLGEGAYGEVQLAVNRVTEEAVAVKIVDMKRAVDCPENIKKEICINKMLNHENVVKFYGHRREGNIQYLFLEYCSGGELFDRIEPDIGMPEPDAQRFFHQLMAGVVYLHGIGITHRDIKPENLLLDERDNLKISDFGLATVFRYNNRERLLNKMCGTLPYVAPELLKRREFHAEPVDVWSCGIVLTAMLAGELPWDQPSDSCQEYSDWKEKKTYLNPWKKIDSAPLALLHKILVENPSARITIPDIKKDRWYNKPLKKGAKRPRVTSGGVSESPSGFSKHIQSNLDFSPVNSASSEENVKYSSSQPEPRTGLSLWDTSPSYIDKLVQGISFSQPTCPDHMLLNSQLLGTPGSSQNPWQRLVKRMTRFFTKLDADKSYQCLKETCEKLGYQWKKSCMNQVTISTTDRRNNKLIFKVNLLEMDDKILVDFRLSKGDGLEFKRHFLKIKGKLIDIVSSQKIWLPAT

Protein sequences, listed by entry. Tags and fused reporters are not part of them.
UniProt Q13535: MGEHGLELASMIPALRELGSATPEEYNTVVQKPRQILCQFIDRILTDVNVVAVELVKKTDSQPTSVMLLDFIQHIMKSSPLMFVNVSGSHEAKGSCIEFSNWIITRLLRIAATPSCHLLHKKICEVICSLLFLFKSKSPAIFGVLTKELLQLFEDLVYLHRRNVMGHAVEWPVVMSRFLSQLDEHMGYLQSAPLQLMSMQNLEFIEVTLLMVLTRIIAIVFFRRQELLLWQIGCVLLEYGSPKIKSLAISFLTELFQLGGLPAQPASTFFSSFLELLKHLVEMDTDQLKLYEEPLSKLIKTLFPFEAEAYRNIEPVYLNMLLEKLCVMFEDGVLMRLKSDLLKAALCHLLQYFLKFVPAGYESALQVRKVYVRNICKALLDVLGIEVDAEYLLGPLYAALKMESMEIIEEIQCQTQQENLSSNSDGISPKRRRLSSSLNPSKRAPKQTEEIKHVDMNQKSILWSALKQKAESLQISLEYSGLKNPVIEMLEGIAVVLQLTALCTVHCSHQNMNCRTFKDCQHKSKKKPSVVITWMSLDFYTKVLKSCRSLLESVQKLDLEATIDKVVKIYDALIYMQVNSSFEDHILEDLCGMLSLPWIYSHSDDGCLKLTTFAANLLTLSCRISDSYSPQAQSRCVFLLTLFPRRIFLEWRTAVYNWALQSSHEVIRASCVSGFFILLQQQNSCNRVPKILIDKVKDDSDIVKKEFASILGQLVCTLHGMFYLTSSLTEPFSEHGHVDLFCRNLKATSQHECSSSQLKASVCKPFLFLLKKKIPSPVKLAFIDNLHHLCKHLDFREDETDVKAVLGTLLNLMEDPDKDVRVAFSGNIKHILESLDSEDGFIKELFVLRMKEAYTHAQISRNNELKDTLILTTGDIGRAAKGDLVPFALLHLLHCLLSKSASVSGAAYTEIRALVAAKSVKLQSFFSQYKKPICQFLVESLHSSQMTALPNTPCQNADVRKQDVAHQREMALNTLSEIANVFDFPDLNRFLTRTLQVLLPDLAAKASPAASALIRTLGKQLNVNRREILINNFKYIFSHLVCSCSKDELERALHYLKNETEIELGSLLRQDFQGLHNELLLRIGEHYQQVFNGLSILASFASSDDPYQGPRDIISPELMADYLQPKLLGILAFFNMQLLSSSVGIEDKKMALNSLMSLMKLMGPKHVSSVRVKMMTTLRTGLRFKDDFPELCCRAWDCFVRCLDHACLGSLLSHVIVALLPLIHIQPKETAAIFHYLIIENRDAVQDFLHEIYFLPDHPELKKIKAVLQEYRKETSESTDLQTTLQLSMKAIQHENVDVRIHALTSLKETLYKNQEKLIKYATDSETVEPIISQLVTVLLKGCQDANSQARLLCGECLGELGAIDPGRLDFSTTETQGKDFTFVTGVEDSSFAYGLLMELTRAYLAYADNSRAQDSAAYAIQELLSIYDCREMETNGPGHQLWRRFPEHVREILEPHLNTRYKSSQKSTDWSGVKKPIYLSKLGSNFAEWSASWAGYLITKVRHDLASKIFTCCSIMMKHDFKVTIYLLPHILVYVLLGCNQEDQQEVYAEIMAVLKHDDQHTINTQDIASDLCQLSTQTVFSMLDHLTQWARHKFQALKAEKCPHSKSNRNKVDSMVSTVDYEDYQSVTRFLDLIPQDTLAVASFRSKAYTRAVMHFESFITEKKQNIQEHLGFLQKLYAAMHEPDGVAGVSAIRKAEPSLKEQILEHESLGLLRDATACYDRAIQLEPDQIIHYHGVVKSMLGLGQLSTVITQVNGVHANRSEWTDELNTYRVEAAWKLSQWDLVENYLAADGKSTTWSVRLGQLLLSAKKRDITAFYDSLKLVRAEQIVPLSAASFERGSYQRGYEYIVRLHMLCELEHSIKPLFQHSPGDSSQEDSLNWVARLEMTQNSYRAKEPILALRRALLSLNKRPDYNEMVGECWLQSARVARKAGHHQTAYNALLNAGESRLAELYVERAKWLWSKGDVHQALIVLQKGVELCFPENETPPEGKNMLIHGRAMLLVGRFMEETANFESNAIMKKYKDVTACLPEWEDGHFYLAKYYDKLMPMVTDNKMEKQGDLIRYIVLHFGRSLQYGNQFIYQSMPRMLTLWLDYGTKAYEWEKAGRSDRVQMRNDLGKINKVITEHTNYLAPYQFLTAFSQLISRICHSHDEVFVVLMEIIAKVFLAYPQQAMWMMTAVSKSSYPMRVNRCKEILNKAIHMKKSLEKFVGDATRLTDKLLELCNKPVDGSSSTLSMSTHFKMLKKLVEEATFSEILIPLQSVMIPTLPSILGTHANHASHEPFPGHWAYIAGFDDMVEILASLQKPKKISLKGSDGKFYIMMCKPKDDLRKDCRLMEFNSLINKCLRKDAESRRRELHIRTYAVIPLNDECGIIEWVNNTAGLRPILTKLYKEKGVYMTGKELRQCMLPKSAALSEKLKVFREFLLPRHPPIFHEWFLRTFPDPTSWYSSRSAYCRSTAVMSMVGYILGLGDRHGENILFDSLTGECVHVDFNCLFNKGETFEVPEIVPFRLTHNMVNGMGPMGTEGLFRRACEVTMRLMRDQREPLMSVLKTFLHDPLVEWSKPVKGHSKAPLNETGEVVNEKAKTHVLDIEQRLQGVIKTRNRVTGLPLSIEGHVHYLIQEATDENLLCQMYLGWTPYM

[2] = molecular target: T2, ATF2 (human (endogenous in HCT116, HT29)) (UniProt P15336); assay: co-IP; anti-ATF2 (E243) antibody, Dynabeads Protein G, 500 ug lysate of HCT116 cells treated with 5-FU or DMSO for 48 h; Western blot for p-ATR Thr1989
T2 sequence: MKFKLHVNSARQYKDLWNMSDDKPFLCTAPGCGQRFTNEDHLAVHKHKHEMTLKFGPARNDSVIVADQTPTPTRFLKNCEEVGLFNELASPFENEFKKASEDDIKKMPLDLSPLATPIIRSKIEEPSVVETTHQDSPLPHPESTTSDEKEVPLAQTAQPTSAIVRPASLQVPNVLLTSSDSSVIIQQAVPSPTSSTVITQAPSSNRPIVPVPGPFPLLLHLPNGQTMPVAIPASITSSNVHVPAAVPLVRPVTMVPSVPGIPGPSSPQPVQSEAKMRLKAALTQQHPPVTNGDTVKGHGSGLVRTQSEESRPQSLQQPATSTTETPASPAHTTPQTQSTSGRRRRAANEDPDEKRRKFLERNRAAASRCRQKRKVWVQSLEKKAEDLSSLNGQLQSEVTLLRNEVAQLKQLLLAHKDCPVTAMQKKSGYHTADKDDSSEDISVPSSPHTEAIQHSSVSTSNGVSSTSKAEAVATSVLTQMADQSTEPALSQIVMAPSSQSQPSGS

[3] = molecular target: T1, Chk1 (human (endogenous in HCT116, HT29)); assay: co-IP; anti-Chk1 antibody, Dynabeads Protein G, lysates of HCT116 and ATF2-KO clones E5 and F9 treated with 5-FU or DMSO for 48 h; Western blot for p-ATR Thr1989
[4] = molecular target: T2, ATF2 (human (endogenous in HCT116, HT29)); assay: proximity ligation; Duolink PLA with anti-p-ATR (p-Thr1989) and anti-ATF2 E243 on fixed, permeabilised HCT116 cells after 48 h of 5-FU or DMSO
[5] = molecular target: T2, ATF2 (human (endogenous in HCT116, HT29)); assay: co-IP; anti-ATF2 (E243) antibody, Dynabeads Protein G, lysate of HT29 cells treated with 5-FU or DMSO for 48 h; Western blot for p-ATR Thr1989

Measured: binding

p-ATR^Thr1989 (activated ATR) (from UniProt Q13535 1-2644) (enzyme)
binds: all assays above

Source: article PMC10223906
